No constants are given. Whether binding was seen depends on the method and setting. Binding seen in cells or lysates may run through a third protein. Some binding calls cover weakened binding; strength is not graded here.
What was measured:
RAB11a = RAB11a (UniProt P62491); test: co-IP; co-immunoprecipitation of RAB11 with TRAPPC4 and PD-L1, IgG as control; cells not named; also after silencing of TRAPPC4 by siRNA (PD-L1 with RAB11a reduced)
[1] = target: programmed death-1 (PD-1) ligand 1 (PD-L1), endogenous (human (endogenous in RKO and LoVo)) (UniProt Q9NZQ7); test: co-IP; co-immunoprecipitation of PD-L1 with TRAPP subunits (Supplementary Fig. 1b); cells and antibodies not shown
FLAG-PD-L1 = FLAG-PD-L1 (UniProt Q9NZQ7); test: co-IP; RKO and LoVo cells co-transfected with FLAG-PD-L1 and MYC-TRAPPC4, IP for FLAG and for MYC
[2] = target: programmed death-1 (PD-1) ligand 1 (PD-L1), endogenous (human (endogenous in RKO and LoVo)) (UniProt Q9NZQ7); test: co-IP; endogenous proteins, RKO and LoVo lysates, IP lysis buffer, Protein G agarose, IgG as control

Amino acid sequences for entries named in this document (tags omitted). Residues count along the entry.
UniProt P62491: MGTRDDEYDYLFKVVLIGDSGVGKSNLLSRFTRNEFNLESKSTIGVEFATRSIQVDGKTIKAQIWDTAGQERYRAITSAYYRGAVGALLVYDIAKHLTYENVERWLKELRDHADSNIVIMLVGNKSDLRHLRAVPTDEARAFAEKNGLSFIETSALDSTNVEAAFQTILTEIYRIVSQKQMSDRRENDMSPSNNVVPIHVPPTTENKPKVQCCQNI
UniProt Q9NZQ7, residues 19-290: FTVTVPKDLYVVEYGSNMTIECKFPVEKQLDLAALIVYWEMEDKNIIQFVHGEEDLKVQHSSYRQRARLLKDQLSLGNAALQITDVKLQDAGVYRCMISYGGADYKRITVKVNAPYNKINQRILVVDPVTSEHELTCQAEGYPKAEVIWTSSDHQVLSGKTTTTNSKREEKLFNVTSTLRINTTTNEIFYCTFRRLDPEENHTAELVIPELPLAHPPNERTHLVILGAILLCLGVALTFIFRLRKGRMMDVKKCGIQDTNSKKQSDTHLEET
UniProt Q9Y2L5: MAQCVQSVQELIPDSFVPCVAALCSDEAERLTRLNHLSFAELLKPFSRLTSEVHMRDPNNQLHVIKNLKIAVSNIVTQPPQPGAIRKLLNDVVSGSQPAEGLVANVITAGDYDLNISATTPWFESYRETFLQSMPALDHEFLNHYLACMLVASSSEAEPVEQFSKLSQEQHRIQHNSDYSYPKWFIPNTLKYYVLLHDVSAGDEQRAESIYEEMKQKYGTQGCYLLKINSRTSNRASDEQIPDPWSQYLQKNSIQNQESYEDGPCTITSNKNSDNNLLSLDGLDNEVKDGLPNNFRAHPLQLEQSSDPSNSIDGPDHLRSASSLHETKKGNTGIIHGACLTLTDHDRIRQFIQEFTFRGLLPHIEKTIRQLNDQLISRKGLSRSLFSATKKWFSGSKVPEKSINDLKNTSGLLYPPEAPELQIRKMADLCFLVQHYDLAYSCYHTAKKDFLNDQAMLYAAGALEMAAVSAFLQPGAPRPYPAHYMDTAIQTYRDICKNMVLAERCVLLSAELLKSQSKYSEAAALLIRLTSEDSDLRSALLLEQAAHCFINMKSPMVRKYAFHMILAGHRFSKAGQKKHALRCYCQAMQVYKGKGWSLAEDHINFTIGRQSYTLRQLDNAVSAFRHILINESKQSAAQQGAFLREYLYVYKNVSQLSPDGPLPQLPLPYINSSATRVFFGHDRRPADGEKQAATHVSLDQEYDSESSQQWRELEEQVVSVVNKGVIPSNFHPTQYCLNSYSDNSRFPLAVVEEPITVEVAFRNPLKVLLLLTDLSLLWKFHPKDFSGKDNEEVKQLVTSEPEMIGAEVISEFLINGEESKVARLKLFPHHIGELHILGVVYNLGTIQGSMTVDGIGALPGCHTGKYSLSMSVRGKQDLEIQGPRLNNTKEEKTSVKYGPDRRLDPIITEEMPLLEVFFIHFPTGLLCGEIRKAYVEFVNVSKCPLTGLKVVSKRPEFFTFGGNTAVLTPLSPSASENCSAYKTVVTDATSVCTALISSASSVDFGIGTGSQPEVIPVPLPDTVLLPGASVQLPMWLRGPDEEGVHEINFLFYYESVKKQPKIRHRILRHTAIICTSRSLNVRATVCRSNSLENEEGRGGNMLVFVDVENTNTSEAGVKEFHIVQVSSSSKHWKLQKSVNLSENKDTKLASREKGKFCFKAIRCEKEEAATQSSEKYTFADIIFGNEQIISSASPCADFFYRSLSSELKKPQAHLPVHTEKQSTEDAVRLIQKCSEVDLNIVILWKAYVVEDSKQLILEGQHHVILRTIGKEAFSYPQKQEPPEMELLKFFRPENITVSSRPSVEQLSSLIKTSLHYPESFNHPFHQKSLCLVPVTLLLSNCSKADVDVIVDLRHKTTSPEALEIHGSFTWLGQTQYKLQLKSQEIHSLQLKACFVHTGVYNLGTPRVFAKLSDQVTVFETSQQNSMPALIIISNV
UniProt Q8WVT3: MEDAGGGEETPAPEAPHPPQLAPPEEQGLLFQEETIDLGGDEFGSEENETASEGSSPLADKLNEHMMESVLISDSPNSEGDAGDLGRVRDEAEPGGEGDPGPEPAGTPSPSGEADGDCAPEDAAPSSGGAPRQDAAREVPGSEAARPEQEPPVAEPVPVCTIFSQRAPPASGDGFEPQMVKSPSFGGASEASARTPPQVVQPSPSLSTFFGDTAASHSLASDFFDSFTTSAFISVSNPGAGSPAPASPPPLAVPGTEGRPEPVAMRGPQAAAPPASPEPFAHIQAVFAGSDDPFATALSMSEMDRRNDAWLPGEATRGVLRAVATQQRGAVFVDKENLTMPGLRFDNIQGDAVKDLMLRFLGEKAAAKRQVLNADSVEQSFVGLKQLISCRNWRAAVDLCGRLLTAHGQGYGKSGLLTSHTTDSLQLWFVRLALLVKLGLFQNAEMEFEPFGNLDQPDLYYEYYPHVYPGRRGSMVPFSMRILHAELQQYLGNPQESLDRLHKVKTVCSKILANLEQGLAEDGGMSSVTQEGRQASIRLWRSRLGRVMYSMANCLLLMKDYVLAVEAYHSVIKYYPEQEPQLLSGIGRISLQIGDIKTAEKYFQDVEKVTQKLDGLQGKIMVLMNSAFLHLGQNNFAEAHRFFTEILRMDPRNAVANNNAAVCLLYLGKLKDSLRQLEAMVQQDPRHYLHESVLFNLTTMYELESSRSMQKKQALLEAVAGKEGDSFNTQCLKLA
UniProt Q9Y296: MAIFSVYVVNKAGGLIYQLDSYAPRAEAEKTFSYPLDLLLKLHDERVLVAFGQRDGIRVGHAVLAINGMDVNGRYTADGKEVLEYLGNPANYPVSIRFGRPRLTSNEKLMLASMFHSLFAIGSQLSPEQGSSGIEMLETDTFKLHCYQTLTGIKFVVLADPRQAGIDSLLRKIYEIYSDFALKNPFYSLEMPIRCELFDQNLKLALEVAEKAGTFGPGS
UniProt O43617: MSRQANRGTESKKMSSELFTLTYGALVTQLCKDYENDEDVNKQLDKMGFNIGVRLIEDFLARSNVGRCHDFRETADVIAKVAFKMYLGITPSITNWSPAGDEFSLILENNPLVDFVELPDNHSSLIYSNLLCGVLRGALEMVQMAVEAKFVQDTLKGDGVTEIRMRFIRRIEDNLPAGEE

Row | Substance | binding (RAB11a) | binding [1] | also measured
1 | programmed death-1 (PD-1) ligand 1 (PD-L1), endogenous (from UniProt Q9NZQ7 19-290) | binds |  | 
2 | TRAPPC8 (from UniProt Q9Y2L5 1-1435) |  | binds | 
3 | TRAPPC12 (from UniProt Q8WVT3 1-735) |  | binds | 
4 | MYC-TRAPPC4 (from UniProt Q9Y296 1-219) |  |  | binding (FLAG-PD-L1): binds
5 | trafficking protein particle complex subunit 4 (TRAPPC4), endogenous (from UniProt Q9Y296 1-219) | binds | binds | binding [2]: binds
6 | TRAPPC3 (from UniProt O43617 1-180) |  | binds | 
